Reference: patent US20250257332A1, “TRUNCATED AND FUSION PROTEINS” (Monash University, priority 2021, published 2025)
No constants are given. Whether binding was seen depends on the method and setting. Some results given as binding are weak or reduced against the parent protein; the word gives no strength.

Protein sequences, listed by entry. Tags and fused reporters are not part of them. Lines headed by an entry give the natural chain unless they say otherwise; changes in a name come on top.
UniProt P51682: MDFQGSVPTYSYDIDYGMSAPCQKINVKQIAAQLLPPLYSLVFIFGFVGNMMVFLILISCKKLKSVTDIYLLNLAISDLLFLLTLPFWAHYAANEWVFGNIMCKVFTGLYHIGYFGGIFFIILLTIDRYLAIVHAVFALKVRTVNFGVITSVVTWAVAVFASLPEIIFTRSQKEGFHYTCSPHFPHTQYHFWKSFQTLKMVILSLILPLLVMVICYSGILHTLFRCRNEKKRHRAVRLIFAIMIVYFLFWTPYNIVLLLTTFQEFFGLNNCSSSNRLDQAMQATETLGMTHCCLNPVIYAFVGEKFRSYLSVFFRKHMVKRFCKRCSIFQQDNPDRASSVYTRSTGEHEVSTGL
UniProt P43490: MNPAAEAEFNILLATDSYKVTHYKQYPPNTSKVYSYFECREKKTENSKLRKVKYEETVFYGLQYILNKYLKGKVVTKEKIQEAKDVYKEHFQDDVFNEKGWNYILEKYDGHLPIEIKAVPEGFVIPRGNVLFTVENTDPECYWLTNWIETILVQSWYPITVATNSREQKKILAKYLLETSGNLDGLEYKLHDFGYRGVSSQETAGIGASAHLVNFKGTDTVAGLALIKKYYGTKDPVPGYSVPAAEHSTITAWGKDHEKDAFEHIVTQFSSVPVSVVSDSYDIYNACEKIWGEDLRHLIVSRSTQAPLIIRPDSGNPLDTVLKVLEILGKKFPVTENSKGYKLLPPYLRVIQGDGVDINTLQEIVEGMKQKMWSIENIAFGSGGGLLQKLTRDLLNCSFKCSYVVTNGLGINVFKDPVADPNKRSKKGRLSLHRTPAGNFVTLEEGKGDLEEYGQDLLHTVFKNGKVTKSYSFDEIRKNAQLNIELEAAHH

Tests used:
[1] = target: recombinant mouse CCR5 (MyBioSource) (mouse) (UniProt P51682); test: competition ELISA (FIG. 2C legend)
[2] = target: CCR5 receptor on C2C12 mouse myoblasts (mouse) (UniProt P51682); test: title of FIG. 2; rests on C2C12 proliferation with CCR5 antagonists and on the CCR5 competition ELISA

| binding [1] | binding [2] | Substance |
| --- | --- | --- |
| binds | – | human NAMPT cytokine finger (hNAMPTcif; NAMPT402-491) (from UniProt P43490 402-491) (ligand) |
| – | binds | human recombinant NAMPT hrNAMPT (1) (Peprotech) (from UniProt P43490 27-491) (ligand) |
